Measurements reported in patent US5654273A (Children's Medical Center Corporation, priority 1994, dated 1997).

Experiment: peptide made by a vendor
Settings: whole synthesis, RP-HPLC and mass spectrometry

For RRRPRPPYLPRPRPPPFFPPRLPPRIPPGFPPRFPPRFP, the “purity (crude or final not stated)” value was 96%.

Where no end group is shown, it is not given here.
